This passage reports binding results from paper PMC12507411.

The chains behind the UniProt entries cited, without tags or fusion partners.
UniProt Q8BJF9: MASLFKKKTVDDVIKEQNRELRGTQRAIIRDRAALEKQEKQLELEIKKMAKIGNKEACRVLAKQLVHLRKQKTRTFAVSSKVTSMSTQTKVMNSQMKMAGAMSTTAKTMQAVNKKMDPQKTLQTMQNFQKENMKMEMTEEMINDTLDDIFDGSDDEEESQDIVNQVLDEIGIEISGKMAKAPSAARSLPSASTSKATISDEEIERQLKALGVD

Assay [1] has as its target T1, charged multivesicular body protein 4B (CHMP4B) (mouse (endogenous in N2a cells and in mouse hippocampus)) (UniProt Q9D8B3).
T1 sequence: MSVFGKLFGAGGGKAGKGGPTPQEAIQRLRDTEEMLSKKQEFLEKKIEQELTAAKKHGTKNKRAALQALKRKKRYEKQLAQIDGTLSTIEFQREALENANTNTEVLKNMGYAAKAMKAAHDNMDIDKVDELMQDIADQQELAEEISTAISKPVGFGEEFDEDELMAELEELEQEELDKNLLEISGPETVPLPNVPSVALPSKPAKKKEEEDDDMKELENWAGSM
The experiment in a line: co-IP; hippocampal homogenate (RIPA lysis buffer) of WT+Vec, MAPT+Vec and MAPT+AAV-CHMP4B mice; anti-CHMP4B on protein A+G agarose, incubated with the homogenate at 4°C overnight; Western blot. On the technique in general: Immunoblotting shows a protein as a band on a membrane.

The target in assay [2] is T1, charged multivesicular body protein 4B (CHMP4B) (mouse (endogenous in N2a cells and in mouse hippocampus)). The experiment in a line: co-IP; N2a cell lysate; cells overexpressing vector or MAPT (Figure 2G,H) or treated with siChmp4b (Figure S2F,G); blots for CHMP4B, CHMP2B and ALIX; the methods tell the procedure (anti-CHMP4B on protein A+G agarose) only for hippocampal tissue.

No constants are given. Whether binding was seen depends on the method and setting. In cells and extracts the contact can be indirect. Some entries that bind do so weakly or less than the wild type.

“charged multivesicular body protein 2B (CHMP2B) (from UniProt Q8BJF9 1-213)”: the binding entry in assay [1] and in assay [2] was “binds” in each case.
